Measured values taken from paper PMC12114750 (Pharmaceuticals, 2025).

System: FL83B hepatocytes
Experiment: Cytotoxicity (in vitro hepatotoxicity) MTT assay, FL83B
Format: cell-based
Details: Mus musculus, 24 h, normal murine hepatocytes
Procedure: Hepatocyte cells (FL83B; ATCC: CLR-2390) were cultured in F-12K medium. Human neuroblastoma (SH-SY5Y; ATCC: CRL-2266) cells were cultivated in DMEM/F12 medium. All media were supplemented with fetal bovine serum (10%) (Biowest, Riverside, MO, USA) and 1% antibiotic/antimycotic solution (Biowest, Nuaill’e, France).
Cells were seeded at an appropriate density to promote optimal growth, and the culture medium was replaced every 48 h. Once cells reached 80–90% confluence, subculture was performed using 0.25% trypsin-EDTA to dissociate the cells, by 2 min and put inside of chamber during 5 min, according to the protocol provided by the biobanks. […]
Cells were seeded in 96-well plates (HepG-2: 2.5 ×10^4 cells; HCT-15: 2.5 × 10^4 cells/mL; MCF-7: 2.5 × 10^4 cells/mL; SH-SY5Y: 5.0 × 10^4 cells/mL; FL83B: 5.0 × 10^4 cell/mL; DU-145: 5.0 × 10^4 cell/mL). […] Cell viability was assessed using MTT assay. […] After incubation, the intracellular formazan crystals were solubilized with 100 μL DMSO and, after […], the absorbance was measured at 570 nm using a microplate reader (Synergy H1). […] Results were expressed as a percentage of control untreated cells and the half-maximal inhibitory concentration (IC50) values were determined using nonlinear regression analysis (GraphPad Prism, 8.1, GraphPad Software, San Diego, CA, USA).

Structure (SMILES): CC/C(=C(\c1ccccc1)c1ccc(OCCN(C)C)cc1)c1ccccc1 [Tamoxifen, reference compound]
- IC50: 19.5 µM
